# From PubChem BioAssay AID493014 (National Center for Advancing Translational Sciences (NCATS), 2011)
# Some of the results follow. The main result of the screen is listed elsewhere. These columns were measured beside it and carry no call. Most of these compounds were active or inconclusive in the main read-out, so they are no random draw. The note in brackets gives the kind of curve behind each potency; many fits are weak.
# Assay: qHTS Assay to Find Inhibitors of Chronic Active B-Cell Receptor Signaling
# Details: ABC-DLBCL IkBa-CBG/CBR reporter, luminescence ratio (green luciferase fused to IkBa over red control in TMD8 lymphoma cells), 4 h
# Procedure, shortened: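 TMD8 human ABC-DLBCL cells with doxycycline-inducible IκBα–green luciferase fusion and unfused red luciferase, in 0.5% FBS medium; compounds up to 46 uM, 4 h at 37C. Green/red luminescence ratio, filter-overlap corrected, fitted to concentration-response curves.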
# [1] = measured here: CBR red luminescence, cell number
# [2] = measured here: IkBa-CBG green luminescence
SMILES,AC50 [1],AC50 [2]
CC1Cc2ccccc2N1C(=O)CSc1nn2c(=O)c(C(C)(C)C)nnc2s1 (stereo unspecified),"20 µM [falling, single point]","5.01 µM [rising, full curve, poor fit]"
CC1CCCN(C(=O)CCCn2c(=S)[nH]c3ccccc3c2=O)C1 (stereo unspecified),"18.4 µM [falling, single point]",–
CCOc1cccc(CN(CC)CC2CCCN(CCc3cccc(OC)c3)C2)c1O (stereo unspecified),"22.4 µM [falling, single point]",–
N#Cc1cccc(N=c2ssnc2Cl)c1,"10 µM [rising, partial curve, poor fit]","22.4 µM [falling, partial curve, poor fit]"
CCOC(=O)c1c(C)[nH]c(C)c1C(=O)COC(=O)/C=C/c1ccc(OC(F)F)cc1,"29.1 µM [rising, single point]",–
CC(Sc1ccccc1)C(=O)NN=C1CCCCCCC1 (stereo unspecified),"35.5 µM [rising, single point]",–
COc1ccc(C(C)NCCC(c2ccc(OC(C)C)cc2)c2ccccc2OC)cc1 (stereo unspecified),"17.8 µM [falling, single point]",–
COc1ccc(OC(C)C(=O)N(C)Cc2nc(-c3cccc(C)c3)no2)cc1 (stereo unspecified),"35.5 µM [rising, partial curve, poor fit]",–
COc1ccc(Cl)cc1NC(=S)N1CCN(c2ccccn2)CC1,"11.2 µM [rising, single point]",–
CC(C)(C)CC(=O)NCCc1csc(-c2ccccc2)n1,"5.62 µM [rising, single point]",–
O=C(Nc1ccc(F)cc1)Nc1ccccc1C(=O)NCCN1CCNC1=O,"5.62 µM [falling, full curve, poor fit]",–
O=C1C(c2ccc(F)cc2)N(CC2COc3ccccc3O2)C(=O)CN1C1CCCCC1 (stereo unspecified),"6.31 µM [falling, single point]",–
COc1ccc(OC)c(-n2c(C)cc(C=O)c2C)c1,"7.08 µM [rising, full curve, poor fit]",–
CCOC(=O)C1=C(c2ccccc2)Nc2ncnn2C1c1cc(OC)ccc1OC (stereo unspecified),"20.6 µM [rising, single point]",–
CNc1ccc(Br)cc(C(=O)/C=C/c2cccc(OC)c2)c1=O,"2.59 µM [falling, full curve, poor fit]",–
Cc1nc(N)sc1C(=O)N/N=C/c1cccnc1,"2.51 µM [falling, partial curve]",–
Cc1c(/C=C/C(=O)c2ccccc2O)cnn1C,"0.517 µM [rising, full curve]",–
CC(/C=N/n1c(C2CCCCC2)n[nH]c1=S)=C\c1ccccc1,"11.2 µM [rising, partial curve]",–
Cc1ccc(NC(=O)CCN2C(=O)c3ccccc3C2=O)c(C)c1,"10 µM [rising, partial curve]",–
CCC(=O)O[C@]1(C(=O)CCl)[C@@H](C)C[C@H]2[C@@H]3CCC4=CC(=O)C=C[C@]4(C)[C@@]3(F)[C@@H](O)C[C@@]21C,"35.5 µM [falling, single point]",–
CC(=O)Nc1ccc(S(=O)(=O)Nc2nc(CN3CCOCC3)nc3sc4c(c23)CCCC4)cc1,"1.84 µM [falling, partial curve, poor fit]",–

SMILES,AC50 [1],AC50 [2]
CCOC(=O)c1sc2nc(C)nc(SCC(=O)NC3CCS(=O)(=O)C3)c2c1C (stereo unspecified),"5.01 µM [rising, single point]",–
Cc1nn(C(C)(C)C)c(OC(=O)CC(C)C)c1S(=O)(=O)c1ccccc1,"35.5 µM [rising, single point]",–
Cc1ccc(SCCSc2nc(C)cc(=O)[nH]2)cc1,"14.1 µM [rising, single point]",–
CCC(=O)Nc1ccc(C(=O)COC(=O)c2sc(C)nc2C)cc1,"2.06 µM [rising, full curve, poor fit]",–
O=C(NC1CCCCC1)N1CCN(Cc2ccco2)CC1,"35.5 µM [falling, single point]",–
Cc1ccc(S(=O)(=O)N/N=C/c2ccc(O)cc2O)cc1[N+](=O)[O-],"22.4 µM [falling, single point]",–
CCS(=O)(=O)c1nc(S(=O)(=O)c2ccc(C)cc2)c(NCCCn2ccnc2)s1,"1.12 µM [rising, single point]",–
CC12C(=O)N(Cc3ccco3)C(=O)C1C1c3ccccc3C2c2ccccc21 (stereo unspecified),"0.58 µM [falling, single point]",–
Cc1nc2sc(C(c3ccccc3)N3CC(C)OC(C)C3)c(O)n2n1 (stereo unspecified),"22.4 µM [rising, single point]",–
Cc1nc(NC(=O)c2ccccc2)sc1-c1csc(Nc2ccc(C(=O)O)cc2)n1,"0.447 µM [falling, partial curve, poor fit]",–
CCCN(C(=O)c1ccco1)c1nnc(-c2cccc(C)c2)s1,"35.5 µM [rising, single point]",–
Cn1ccnc1SCC(=O)c1ccc2ccccc2c1,"11.2 µM [falling, partial curve, poor fit]",–
COc1ccc(OC)c(CN2C(=O)c3ccccc3C2C(=O)NCC2CCCO2)c1 (stereo unspecified),"35.5 µM [rising, single point]",–
Cc1ccc(/C=C/C(=O)c2ccc(O)cc2)cc1,"31.6 µM [falling, single point]",–
COc1ccccc1-c1noc(-c2cc(OC)c(OC)c(OC)c2)n1,"10.3 µM [rising, partial curve, poor fit]",–
COCCN1C(=O)c2ccc(C(=O)O)cc2C1=O,"4.61 µM [rising, full curve, poor fit]",–
CN(C)CC/C=C1\c2ccccc2Sc2ccc(Cl)cc21,"15.8 µM [falling, single point]",–
CC1CCCCN1C(=S)NC(=O)c1cccs1 (stereo unspecified),"22.4 µM [rising, partial curve, poor fit]","22.4 µM [falling, partial curve, poor fit]"
CN(C(=O)CN1C(=O)S/C(=C\c2cccc(Cl)c2)C1=O)C1CCS(=O)(=O)C1 (stereo unspecified),"22.4 µM [falling, partial curve]",–
COC(=O)C1=CN(c2ccc(F)cc2)C=C(C(=O)OC)C1c1cccc([N+](=O)[O-])c1,"12.6 µM [falling, single point]",–
CCn1c(SCC(=O)Nc2ccc(NC(C)=O)cc2)nnc1C1CC1,"0.1 µM [rising, full curve, poor fit]",–

SMILES,AC50 [1],AC50 [2]
CCCCC(=O)NC(c1ccccc1OC)c1ccc2cccnc2c1O (stereo unspecified),"1.26 µM [falling, full curve, poor fit]",–
Cc1ccc(-n2ncc3c(Nc4cccc(Cl)c4)ncnc32)c(C)c1,"0.447 µM [rising, full curve, poor fit]",–
COc1cc(OC)c(NC(=O)CCCNC(=O)Cn2cnc3sc(C)c(C)c3c2=O)cc1Cl,"35.5 µM [rising, single point]",–
Cc1cc(C)nc(NC(=O)/C=C/c2ccc3c(c2)OCO3)c1,"18.4 µM [falling, partial curve]",–
CCCCN(C)S(=O)(=O)c1ccc(C(=O)Nc2nnc(-c3cccs3)o2)cc1,"17.8 µM [falling, single point]",–
Cc1ccc(C(=O)Nc2nc(-c3ccccn3)cs2)cc1S(=O)(=O)N1CCOCC1,"4.61 µM [falling, full curve]",–
COc1cccc(-c2nn(-c3ccccc3)cc2C(=O)Nc2nccs2)c1,"13 µM [falling, partial curve, poor fit]",–
Cc1ccc(S(=O)(=O)CCC(=O)Nc2nnc(-c3ccccc3S(C)(=O)=O)o2)cc1,"6.51 µM [rising, single point]",–
O=C1C2C3C=CC(C3)C2C(=O)N1CCCCCCN1C(=O)C2C3C=CC(C3)C2C1=O (stereo unspecified),"35.5 µM [falling, single point]",–
COc1ccc(-c2nc(NC(=O)Cn3c(=O)oc4ccccc43)sc2C)cc1,"8.2 µM [falling, partial curve, poor fit]",–
CCOc1cccc(N2C(=O)CC(N(CCc3ccc(OC)c(OC)c3)C(=O)CC)C2=O)c1 (stereo unspecified),"2.06 µM [rising, full curve, poor fit]",–
CC1(C)C(=O)OC(C(=O)c2ccc(C(C)(C)C)cc2)C(C)(C)C1=O (stereo unspecified),"0.517 µM [rising, full curve, poor fit]",–
O=C(Nc1ccccc1N1CCCCC1)C1CCN(C(=O)c2ccc(Cl)cc2)CC1,"16.4 µM [falling, partial curve]",–
CCN(CC)C(=O)c1sc(NC(=O)Cc2cccs2)c(C#N)c1C,"12.6 µM [rising, partial curve, poor fit]",–
O=C(O)CCCC(=O)N1N=C(c2c(-c3ccccc3)c3cc(Cl)ccc3[nH]c2=O)CC1c1cccs1 (stereo unspecified),"18.4 µM [falling, single point]","29.1 µM [rising, single point]"
CCN(CC)S(=O)(=O)c1cccc(NC(=O)c2cc3ccccc3o2)c1,"3.98 µM [falling, partial curve]",–
COc1ccc(NC(=O)CC2C(=O)N(c3ccc(F)cc3)C(=S)N2NC(=O)c2ccccc2)cc1 (stereo unspecified),"16.4 µM [falling, partial curve]",–
Cn1cc(C(=O)N/N=C/c2cccs2)c2ccccc21,"10.3 µM [falling, partial curve]",–
Cc1ccc(C)c(-c2nnc(OCC(=O)Nc3cc(C)on3)c3ccccc23)c1,"32.6 µM [falling, single point]",–
Cc1ccc2c(c1)C1C[N+](C)(CC(=O)Nc3ccccc3Cl)CCC1N2C(=O)c1ccccc1Cl (stereo unspecified),"6.51 µM [falling, partial curve]",–

# Among those listed so far, these have a furan ring, fused or not.
SMILES,AC50 [1],AC50 [2]
O=C(NC1CCCCC1)N1CCN(Cc2ccco2)CC1,"35.5 µM [falling, single point]",–
CC12C(=O)N(Cc3ccco3)C(=O)C1C1c3ccccc3C2c2ccccc21 (stereo unspecified),"0.58 µM [falling, single point]",–
CCCN(C(=O)c1ccco1)c1nnc(-c2cccc(C)c2)s1,"35.5 µM [rising, single point]",–
CCN(CC)S(=O)(=O)c1cccc(NC(=O)c2cc3ccccc3o2)c1,"3.98 µM [falling, partial curve]",–
